1 substance from PMC6175882 can be followed below.

Protein sequences, listed by entry. Tags and fused reporters are not part of them.
UniProt Q92922: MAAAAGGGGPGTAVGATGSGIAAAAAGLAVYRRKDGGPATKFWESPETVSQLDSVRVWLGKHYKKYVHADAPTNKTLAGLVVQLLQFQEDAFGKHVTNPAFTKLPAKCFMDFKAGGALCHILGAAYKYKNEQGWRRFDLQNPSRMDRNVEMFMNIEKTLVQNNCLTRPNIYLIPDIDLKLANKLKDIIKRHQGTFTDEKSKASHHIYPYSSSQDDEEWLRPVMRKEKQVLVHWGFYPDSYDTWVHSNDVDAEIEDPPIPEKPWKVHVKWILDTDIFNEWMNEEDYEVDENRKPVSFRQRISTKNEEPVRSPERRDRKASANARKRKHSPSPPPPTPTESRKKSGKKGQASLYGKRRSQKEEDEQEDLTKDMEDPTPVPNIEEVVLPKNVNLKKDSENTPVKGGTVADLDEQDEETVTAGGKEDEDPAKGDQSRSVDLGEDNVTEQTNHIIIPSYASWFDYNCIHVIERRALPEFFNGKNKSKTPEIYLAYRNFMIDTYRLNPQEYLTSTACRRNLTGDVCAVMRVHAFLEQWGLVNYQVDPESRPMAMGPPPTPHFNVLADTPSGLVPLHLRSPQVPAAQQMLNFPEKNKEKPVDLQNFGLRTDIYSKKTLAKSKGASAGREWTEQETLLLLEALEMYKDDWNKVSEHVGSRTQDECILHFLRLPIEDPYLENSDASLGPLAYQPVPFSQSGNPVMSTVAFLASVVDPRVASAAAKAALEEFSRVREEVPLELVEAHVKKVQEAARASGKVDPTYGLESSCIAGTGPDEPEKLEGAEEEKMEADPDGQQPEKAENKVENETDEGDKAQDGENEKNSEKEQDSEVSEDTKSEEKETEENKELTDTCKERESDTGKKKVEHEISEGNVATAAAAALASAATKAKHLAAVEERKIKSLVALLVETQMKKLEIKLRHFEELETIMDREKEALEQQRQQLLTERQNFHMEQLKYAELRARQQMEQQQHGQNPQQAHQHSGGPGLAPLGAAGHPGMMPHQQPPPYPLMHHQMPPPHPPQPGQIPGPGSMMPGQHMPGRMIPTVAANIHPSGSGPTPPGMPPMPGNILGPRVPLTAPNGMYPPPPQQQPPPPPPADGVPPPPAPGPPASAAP
UniProt P51531: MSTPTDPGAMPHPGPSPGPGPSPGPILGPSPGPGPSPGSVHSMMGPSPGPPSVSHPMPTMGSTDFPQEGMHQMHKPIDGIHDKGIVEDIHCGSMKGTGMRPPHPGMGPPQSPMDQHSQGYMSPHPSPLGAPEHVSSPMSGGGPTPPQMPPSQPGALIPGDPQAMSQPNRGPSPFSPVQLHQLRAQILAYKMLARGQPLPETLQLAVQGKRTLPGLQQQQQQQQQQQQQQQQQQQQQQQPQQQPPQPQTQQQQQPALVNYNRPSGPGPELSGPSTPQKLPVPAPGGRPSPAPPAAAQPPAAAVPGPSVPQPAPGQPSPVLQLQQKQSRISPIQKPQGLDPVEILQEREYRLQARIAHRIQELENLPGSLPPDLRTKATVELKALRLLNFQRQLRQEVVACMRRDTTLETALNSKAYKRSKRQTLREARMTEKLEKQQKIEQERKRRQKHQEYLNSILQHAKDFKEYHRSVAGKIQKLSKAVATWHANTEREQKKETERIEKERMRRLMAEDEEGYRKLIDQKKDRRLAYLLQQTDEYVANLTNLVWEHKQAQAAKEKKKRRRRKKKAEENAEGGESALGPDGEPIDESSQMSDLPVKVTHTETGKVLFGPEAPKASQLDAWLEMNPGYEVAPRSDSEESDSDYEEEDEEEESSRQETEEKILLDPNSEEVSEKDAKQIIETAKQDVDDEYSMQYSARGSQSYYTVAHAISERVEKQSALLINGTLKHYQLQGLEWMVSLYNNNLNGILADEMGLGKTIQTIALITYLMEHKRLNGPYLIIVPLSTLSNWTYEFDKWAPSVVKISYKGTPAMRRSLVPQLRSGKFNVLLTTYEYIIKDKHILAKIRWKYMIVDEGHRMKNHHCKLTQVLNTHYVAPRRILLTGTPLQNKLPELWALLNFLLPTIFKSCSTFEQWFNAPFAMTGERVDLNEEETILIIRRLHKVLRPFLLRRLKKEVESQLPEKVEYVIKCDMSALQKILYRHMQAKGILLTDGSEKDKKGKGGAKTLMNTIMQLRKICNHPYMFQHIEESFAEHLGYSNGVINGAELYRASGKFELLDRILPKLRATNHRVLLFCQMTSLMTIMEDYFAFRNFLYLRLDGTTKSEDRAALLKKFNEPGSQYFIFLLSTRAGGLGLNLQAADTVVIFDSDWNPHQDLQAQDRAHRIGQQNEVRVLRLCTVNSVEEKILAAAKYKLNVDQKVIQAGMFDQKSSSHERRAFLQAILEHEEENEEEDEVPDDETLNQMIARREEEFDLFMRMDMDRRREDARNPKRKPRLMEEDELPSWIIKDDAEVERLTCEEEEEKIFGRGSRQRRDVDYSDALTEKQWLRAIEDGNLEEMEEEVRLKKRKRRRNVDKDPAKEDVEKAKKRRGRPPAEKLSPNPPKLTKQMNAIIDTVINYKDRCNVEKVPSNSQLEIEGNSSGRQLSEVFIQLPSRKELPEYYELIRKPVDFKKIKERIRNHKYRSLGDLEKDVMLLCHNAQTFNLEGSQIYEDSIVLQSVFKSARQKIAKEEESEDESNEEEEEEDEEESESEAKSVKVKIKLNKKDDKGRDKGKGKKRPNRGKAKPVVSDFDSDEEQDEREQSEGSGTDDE

These are yes or no findings as the source states them, for the method shown. Binding seen in cells or lysates may run through a third protein. These calls come from enrichment with a bait or labelling near it, and not all partners need be listed.

The experiment concerns the target SMARCC1 (human (endogenous in TOV21G)) (UniProt Q92922). Description: affinity purification with mass spectrometry; endogenous SWI/SNF complex immunoprecipitated by SMARCC1 from nuclear fractions of parental and resistant TOV21G cells; LC-MS/MS, stoichiometry normalised to SMARCC1.

In the case of SMARCA2 (from UniProt P51531 1-1590), the binding entry is “binds”.
